Binding data for 13 molecules are collected here from US20250270315A1.

Sequences of proteins named here, by UniProt entry; tags and fusion partners are left off. A change or cut given only in a name is not applied to a line headed by its entry.
UniProt P78324: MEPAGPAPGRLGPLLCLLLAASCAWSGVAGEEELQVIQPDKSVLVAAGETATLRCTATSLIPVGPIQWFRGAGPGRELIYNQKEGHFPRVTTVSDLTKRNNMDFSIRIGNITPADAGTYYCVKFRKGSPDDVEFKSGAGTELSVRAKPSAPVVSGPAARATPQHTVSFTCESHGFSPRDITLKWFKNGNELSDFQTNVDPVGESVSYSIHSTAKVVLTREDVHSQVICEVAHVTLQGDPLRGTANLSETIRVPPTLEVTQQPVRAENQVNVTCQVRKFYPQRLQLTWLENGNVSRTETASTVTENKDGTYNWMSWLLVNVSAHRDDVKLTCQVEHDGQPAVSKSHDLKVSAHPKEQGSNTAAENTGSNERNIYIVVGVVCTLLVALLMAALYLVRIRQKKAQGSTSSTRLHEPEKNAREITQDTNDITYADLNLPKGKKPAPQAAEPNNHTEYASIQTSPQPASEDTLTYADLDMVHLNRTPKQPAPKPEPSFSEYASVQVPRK

Changes are numbered by the printed parent chain. These are yes or no findings as the source states them, for the method shown. A result given as binding can be weak or reduced; the word gives no strength.

First the molecules themselves.
B1: 042c (antibody, V domains shown)
VH: QIQLVQSGPELKKPGETVKISCRASGYTFTTYGMSWVKQAPGKGLRWMGWINTYSGVSTCADDFKGRFAFSLETSATTAYLQIHNLTNEDTATYFCARDPHSYGNSPAWFPYWGQGTLVTVSA
VL: DIVMTQSQKFMSTTIRDRVSITCKASQNVGISVAWYQQKSGQSPKLLIYSASNRYTGVPDRFTGSGSGTDFTLTISNMQSEDLADYFCQQYSSYPLTFGSGTKLAIK
B2: 073c (antibody, V domains shown)
VH: QIQLVQSGPELKKPGETVKISCKASGYTFTTYGMSWVKQAPGKGLKWMVWINTYSGVPTYADDFKGRFAFSLETSASTSYLQINNLKNEDTATYFCARDPHYYGSSPAWFVYWGQGTLVTVSA
VL: B1 VL with R16G, K24E, N28I, S32A, S40P, D85N, S93A, L96F, A105E, I106V
B3: hu025.021 (antibody, V domains shown)
VH: EVQLVQSGAEVKKPGATVKISCKVSGFNIKDYYMHWVQQAPGKGLEWIGRIDPEDAETKYAPKFQGRVTITADTSTNTAYMELSSLRSEDTAVYYCDRGLAYWGQGTLVTVSS
VL: EIVLTQSPATLSLSPGERATLSCSASSSVSSSYLYWYQQKPGQAPKLWIYSTSNLASGIPARFSGSGSGTDYTLTISSLEPEDFAVYYCHQWSSYPYTFGQGTKLEIK
B4: hu025.060 (antibody, V domains shown)
VH: B3 VH with V24A
VL: B3 VL with Y72F
B5: hu025.033 (antibody, V domains shown)
VH: B3 VH with N77D
VL: B3 VL
B6: hu025.059 (antibody, V domains shown)
VH: B3 VH with V24A
VL: B3 VL
B7: hu025.023 (antibody, V domains shown)
VH: B3 VH
VL: B3 VL with Y72F
B8: 059c (antibody, V domains shown)
VH: QVQLQQSGPELVKPGASVKMSCKASGYTFSEYVLSWVKQRTGQGLEWIGEIYPGTITTYYNEKFKGKATLTADKSSNTAYIQLTSLTSEDSAVYFCGRFYDYDGGWFAYWGQGTLLTVSA
VL: ENVLTQSPEKMAVSLGQKVTMTCSASSSVSSSDLHWYQQKSGASPKPLIHGTSNLASGVPARFSGSGSGTSYSLTISSVEAEDAATYYCQQWSGYPWTFGGGTNLEIK
B9: hu1H9G4 (antibody, V domains shown)
VH: QVQLVQSGAEVKKPGASVKVSCKASGYTFTSYWITWVKQAPGQGLEWIGDIYPGSGSTNHIEKFKSKATLTVDTSISTAYMELSRLRSDDTAVYYCATGYGSSYGYFDYWGQGTLVTVSS
VL: DIQMTQSPSSLSASVGDRVTITCRASENIYSYLAWYQQKPGKAPKLLIYTAKTLAEGVPSRFSGSGSGTDFTLTISSLQPEDFATYYCQHQYGPPFTFGQGTKLELK
B10: 071c (antibody, V domains shown)
VH: B2 VH with K65Q, K87R, S105T, V111A
VL: B1 VL with R16G, S20I, N28I, S32A, S40P, Y55F, S93T, L96F, A105E
B11: 005c (antibody, V domains shown)
VH: EVKLVESGGGLVQPGGSLSLSCAASGFTFTDYYMSWVRQPPGKALEWLGFIKNEANGYTTESSASVKGRFTISRDNSQSILYLQMNALRAEDSATYYCARYDYYGSNYNWYFDAWGTGTTVTVSS
VL: DIVMTQSQKFMSPSVGDRVSITCKASQNVRTAVAWYQQKPGQSPKVLIHLASKRHTGVPDRFTGSGSGTDFTLTISNVQSEDLADYFCLQHWIHPLTFGAGTKLELK
B12: 015c (antibody, V domains shown)
VH: EVQLQQSGVEVVQPGASVKLSCTASGFNIEAYYMHWVKQRTEQGLEWIGRIDPEDGESKYAPKFQGKATMTADTSSSTAYLQLSSLTSDDTAVYYCVRGSYEYWGQGTTLTVSS
VL: QIVLTQSPAIMSASPGEKVTLTCSASSSVSSSYLYWYQQKPGSSPKLWIYSTSNLASGVPPRFSGSGSGTSYSLTISSMQAEDAASYFCYQWSSYPYTFGGGTKLEIK
B13: 025c (antibody, V domains shown)
VH: EVQLQQSGAELVKPGASVKLSCTASGFNIKDYYMHWVKQRTEQGLEWIGRIDPEDGETKYAPKFQGKATITADTSSNTAYLQLSSLTSEDTAVYYCDRGLAYWGQGTLVTVSA
VL: B12 VL with P61A, Q80E, Y90H

In the first assay the target is cyno SIRPγ ECD recombinant protein (cyno). Briefly: ELISA, cyno SIRPγ ECD (FIG. 4C). Background: In an ELISA, binding on a coated surface is turned into a signal by an enzyme label.
Consider B1, for which the binding entry is “binds”.
For the molecule B2, the binding entry is “binds”.

A further assay addresses human SIRPα v2 expressed on cells (CHOK1 stable line KYinno KC-1720) (human) (UniProt P78324). Briefly: FACS, CHOK1-human SIRPα v2 cells.
On to B3, for which the binding result is “binds”.
For B4, the binding entry is on record as “binds”.
The same measure, in the same setting: for B5 the value was “binds”; for B6, “binds”; for B7, “binds”.
Consider B8, for which the binding result was “binds”.
With B9, the binding entry is recorded as “binds”.
As for B1, the binding result is “binds”.
Same read-out and setting: for B10 the value was “binds”; for B2, “binds”; for B11, “binds”.
Take B12: the binding result was “binds”.
For the molecule B13, the binding result was “binds”.

The target is the same in a further assay. Briefly: FACS screening of humanized variants.
Regarding B3, the binding result is given as “binds”.
Take B4: the binding result is “binds”.
On to B5, for which the binding entry was “binds”.
As to B6, the binding result is “binds”.
Same read-out and setting: the same measure for B7: “binds”.

The target of a further assay is cyno SIRPγ ECD recombinant protein (cyno). Briefly: ELISA, recombinant cyno SIRPγ ECD.
Turning to B9, the binding entry is recorded as “binds”.
Regarding B1, the binding entry was “binds”.
Consider B2, for which the binding entry was “binds”.
Turning to B13, the binding result was “binds”.

Another assay concerns the target human SIRPα v2 expressed on cells (CHOK1 stable line KYinno KC-1720) (human) (UniProt P78324). Briefly: FACS, CHOK1 cells stably expressing human SIRPα v2. (In flow cytometry, cells or beads pass a laser one at a time.)
For B3, the binding result is listed as “binds”.
With B4, the binding result is recorded as “binds”.
As to B5, the binding result is on record as “binds”.
With B6, the binding entry is listed as “binds”.
Turning to B7, the binding entry is given as “binds”.
Regarding B8, the binding result is reported as “binds”.
For the molecule B9, the binding result is “binds”.
Same read-out and setting: for B1 the value was “binds”; for B10, “binds”.
B2: the binding entry is on record as “binds”.
Take B11: the binding entry is “binds”.
In the case of B12, the binding result is on record as “binds”.
B13: the binding entry was “binds”.

A further assay concerns the target human SIRPα v2 ECD recombinant protein (tag not given) (human). Briefly: competitive ELISA, coated human SIRPα v2 ECD, blocked ligand mFc tagged human CD47 ECD.
Turning to B3, the binding entry is given as “binds”.
Regarding B4, the binding result is listed as “binds”.
On to B5, for which the binding entry is “binds”.
Regarding B6, the binding entry is recorded as “binds”.
As for B7, the binding result is listed as “binds”.
On the same count and under the same terms, the same measure for B8: “binds”; for B9: “binds”; for B1: “binds”.
B10: the binding entry is listed as “binds”.
Same read-out and setting: for B2 the value was “binds”; for B12, “binds”; for B13, “binds”.

The target of another assay is human SIRPα v2 expressed on cells (CHOK1 stable line KYinno KC-1720) (human) (UniProt P78324). Briefly: competitive FACS, CHOK1 cells expressing human SIRPα v2, blocked ligand mFc tagged human CD47 ECD.
For B4, the binding result is reported as “binds”.
B7: the binding entry is recorded as “binds”.
As for B9, the binding entry is reported as “binds”.
On to B13, for which the binding result is “binds”.
